Strings that start with PEPTIDE1 are HELM notation: dots part the residues, brackets hold end groups and non-standard residues.
Assay: general procedure: Fmoc solid-phase peptide synthesis; Fmoc-Trp-OCH₂-phenyloxybenzyl resin
Conditions: whole synthesis, scale 0.25 mmol

Substance: PEPTIDE1{[ac].D.K.E.A.V.Y.F.A.H.L.D.I.I.W}$$$$V2.0
- isolated mass: 159 mg
